These are yes or no findings as the source states them, for the method shown. Binding seen in cells or lysates may run through a third protein. Some binding calls cover weakened binding; strength is not graded here. Sequences can lack the tags named with a protein.
Target: T1, RIPK1-WT overexpressed in HEK293T cells (Flag-RIPK1-WT or Myc-RIPK1-WT) (human), Q13546
T1 chain: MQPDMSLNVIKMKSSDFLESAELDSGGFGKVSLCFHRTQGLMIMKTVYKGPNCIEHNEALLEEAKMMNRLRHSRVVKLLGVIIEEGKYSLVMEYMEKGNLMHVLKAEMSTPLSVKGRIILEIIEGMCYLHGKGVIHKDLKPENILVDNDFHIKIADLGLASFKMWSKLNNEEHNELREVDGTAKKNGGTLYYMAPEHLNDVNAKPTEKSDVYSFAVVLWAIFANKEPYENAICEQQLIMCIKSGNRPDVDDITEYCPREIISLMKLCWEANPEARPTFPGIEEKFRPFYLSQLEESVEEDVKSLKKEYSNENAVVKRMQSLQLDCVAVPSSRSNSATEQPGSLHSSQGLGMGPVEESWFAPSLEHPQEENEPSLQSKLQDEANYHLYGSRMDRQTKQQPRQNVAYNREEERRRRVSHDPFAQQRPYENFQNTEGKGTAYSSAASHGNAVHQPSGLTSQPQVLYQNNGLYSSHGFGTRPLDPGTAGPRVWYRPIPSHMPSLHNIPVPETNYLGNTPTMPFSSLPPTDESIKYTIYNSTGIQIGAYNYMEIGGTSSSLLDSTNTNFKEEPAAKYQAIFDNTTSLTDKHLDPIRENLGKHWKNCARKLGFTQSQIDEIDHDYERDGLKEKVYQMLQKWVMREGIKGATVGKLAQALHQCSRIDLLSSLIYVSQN
Assay: co-IP; HEK293T cells co-transfected for 24 h with Flag- and Myc-tagged expression vectors; lysates immunoprecipitated overnight with anti-Flag beads at 4 °C; immunoblot
Settings: remark: other sources report otherwise

binding: binds
B1: RIPK1-WT overexpressed in HEK293T cells (Flag-RIPK1-WT or Myc-RIPK1-WT), Q13546 1-671 (protein)
chain: T1 chain

Reference: article PMC12297241
